Data as given in PubChem BioAssay AID1259308 (NCATS, 2017).
The whole screen tested about 59,000 reagents; below is a random part of them. About 1,510 of all reagents (2.6%) count as active. 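Calls use total luciferase alone and ignore viability, so some active siRNAs may act by altering cell number.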 The numbers tell different reagents against one gene apart. Not all columns of the deposit are shown.

Assay: 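Candidate targets for better recombinant protein yield in mammalian cells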 (primary screen)
Cell system: human HEK293 embryonic kidney cells stably expressing firefly luciferase (HEK-CMV-Luc2-Hygro)
Reagents: single siRNA against human genes, 0.8 pmol siRNA per well
Duration: 72 h
Read-out: 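Luciferase light (ONE-Glo) measured on one replicate plate set and viability (CellTiter-Glo) on the other, scaled to a negative control siRNA, with robust z-scores and luciferase per cell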
Scale: total luciferase, z-score: higher = more reporter protein produced
Call rule: 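Active when the median/MAD z-score for overall luciferase is greater than 3; a gene was taken forward for validation with new siRNAs if at least two of its three siRNAs passed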
Meaning of the calls: active = raised luciferase; inactive = no rise

TMCC2 (transmembrane and coiled-coil domain family 2) #1 gave total luciferase, z-score -0.96; inactive.
Against TMCC2 (transmembrane and coiled-coil domain family 2) #2 the deposit lists total luciferase, z-score -0.856; inactive.
TMCC2 (transmembrane and coiled-coil domain family 2) #3 showed total luciferase, z-score 0.907; inactive.
Silencing of PRSS12 (serine protease 12) #1 gave: total luciferase, z-score -0.144; inactive.
For PRSS12 (serine protease 12) #2, the values are total luciferase, z-score 0.00312; inactive.
After knock-down of PRSS12 (serine protease 12) #3, the screen gave total luciferase, z-score 0.705; inactive.
Depletion of GNA14 (G protein subunit alpha 14) #1 came out at: total luciferase, z-score -2.13; inactive.
For GNA14 (G protein subunit alpha 14) #2, the entry reads total luciferase, z-score 0.46; inactive.
Silencing of GNA14 (G protein subunit alpha 14) #3 came out at: total luciferase, z-score -0.214; inactive.
For HOXA9 (homeobox A9) #1, the entry reads total luciferase, z-score 0.958; inactive.
After knock-down of HOXA9 (homeobox A9) #2 the results were total luciferase, z-score -1.08; inactive.
For HOXA9 (homeobox A9) #3, the values are total luciferase, z-score -1.47; inactive.
DLGAP4 (DLG associated protein 4) #1 gave total luciferase, z-score 2.37; inactive.
After knock-down of DLGAP4 (DLG associated protein 4) #2 the results were total luciferase, z-score -0.897; inactive.
Depletion of DLGAP4 (DLG associated protein 4) #3 gave: total luciferase, z-score 0.335; inactive.
Depletion of TATDN1 (TatD DNase domain containing 1) #1 resulted in: total luciferase, z-score 0.893; inactive.
With knock-down of TATDN1 (TatD DNase domain containing 1) #2, the record shows total luciferase, z-score 1.43; inactive.
TATDN1 (TatD DNase domain containing 1) #3 showed total luciferase, z-score 0.683; inactive.
Against LY86 (lymphocyte antigen 86) #1, the values are total luciferase, z-score -0.185; inactive.
For LY86 (lymphocyte antigen 86) #2, the entry reads total luciferase, z-score -0.225; inactive.
With knock-down of LY86 (lymphocyte antigen 86) #3 the results were total luciferase, z-score -0.776; inactive.

2 entries already listed, arranged by “total luciferase, z-score”, highest first:
LY86 (lymphocyte antigen 86) #1 | total luciferase, z-score: -0.185; call: inactive
LY86 (lymphocyte antigen 86) #2 | total luciferase, z-score: -0.225; call: inactive
